# Laboratory results: article PMC8624189, “Phenolic Profiles and Biological Activities of Extracts from Edible Wild Fruits Ehretia tinifolia and Sideroxylon lanuginosum” (Foods, 2021)
# Tested on: MCF-7 cells
# Test: Antiproliferative activity, Alamar Blue, MCF-7
# Format: cell-based
# Conditions: Homo sapiens, MCF7; 24 h exposure; read-out: Half Maximal Inhibitory Concentration MCF-7
# Experimental: The antiproliferative effects of extracts of E. tinifolia and S. lanuginosum were assessed using the method described previously by Viveros-Valdez, et al.. HeLa (ATCC® CCL-2), MCF-7 (ATCC® HTB-22) and HT-29 (ATCC® HTB-38) cancer cell lines were used. The cells were seeded in 25 cm^2 tissue culture flasks in Dulbecco’s modified eagle medium (DMEM) mixed with Ham’s nutrients (Ham’s F-12) and supplemented with 10% fetal bovine serum (FBS), adjusting the pH to 7.2. A mixture of antibiotics composed of penicillin and streptomycin (10,000 IU/mL: 10,000 µg/mL; 1 mL of mixture/1 L of medium) was added. Cells were maintained at 37 °C in an incubator under a 5% CO2/95% air atmosphere at constant humidity. Cells were harvested by trypsinization, counted with a hemocytometer, and their viability was confirmed by Trypan Blue (0.4%). The different cancer cell lines were seeded with 5000 cells per well in a 96 well plate.
smiles,measurement,value
"CC(=O)O[C@H]1C(=O)[C@@]2(C)[C@H]([C@H](OC(=O)c3ccccc3)[C@]3(O)C[C@H](OC(=O)[C@H](O)[C@@H](NC(=O)c4ccccc4)c4ccccc4)C(C)=C1C3(C)C)[C@]1(OC(C)=O)CO[C@@H]1C[C@@H]2O [taxol, Taxol]",IC50,13 ± 1 mg/L
